From paper PMC9582515
Results are given in words; binding and its absence hold for the method and conditions named. For part of these data: In cells and extracts the contact can be indirect. Some entries that bind do so weakly or less than the wild type. For part of these data: Where a sequence is shown, tags or fusion partners need not be part of it.

What was measured:
[1] = molecular target: T1, Dynein axonemal assembly factor 5 (DNAAF5), in HCC cell lysate (human) (UniProt Q86Y56); test: co-IP; Hep3B cell lysate; IP antibody on Dynabead protein G overnight at 4 °C, immunoblotting; IgG as negative control
T1 sequence: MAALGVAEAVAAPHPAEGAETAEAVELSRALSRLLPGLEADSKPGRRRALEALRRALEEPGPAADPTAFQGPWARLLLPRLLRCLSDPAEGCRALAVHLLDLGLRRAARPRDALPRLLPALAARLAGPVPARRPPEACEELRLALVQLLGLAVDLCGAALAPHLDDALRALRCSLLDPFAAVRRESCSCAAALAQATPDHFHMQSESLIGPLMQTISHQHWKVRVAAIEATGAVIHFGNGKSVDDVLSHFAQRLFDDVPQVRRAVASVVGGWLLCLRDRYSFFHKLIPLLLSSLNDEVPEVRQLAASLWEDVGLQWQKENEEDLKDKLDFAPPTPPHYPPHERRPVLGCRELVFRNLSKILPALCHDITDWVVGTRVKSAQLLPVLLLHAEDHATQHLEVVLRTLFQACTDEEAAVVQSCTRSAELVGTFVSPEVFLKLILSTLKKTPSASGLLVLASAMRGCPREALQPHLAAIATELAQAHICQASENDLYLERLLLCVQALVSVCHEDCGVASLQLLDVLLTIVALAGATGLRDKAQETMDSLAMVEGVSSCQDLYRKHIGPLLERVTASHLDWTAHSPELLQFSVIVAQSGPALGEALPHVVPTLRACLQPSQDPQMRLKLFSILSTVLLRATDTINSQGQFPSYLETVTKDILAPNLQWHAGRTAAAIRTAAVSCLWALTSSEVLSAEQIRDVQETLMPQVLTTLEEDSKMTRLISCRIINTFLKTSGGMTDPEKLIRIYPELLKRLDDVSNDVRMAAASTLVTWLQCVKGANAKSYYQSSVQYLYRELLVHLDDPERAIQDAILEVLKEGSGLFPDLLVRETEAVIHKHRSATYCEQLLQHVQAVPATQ

[2] = molecular target: T2, PFKL (phosphofructokinase, liver type), in HCC cell lysate (human) (UniProt P17858); test: as above
T2 sequence: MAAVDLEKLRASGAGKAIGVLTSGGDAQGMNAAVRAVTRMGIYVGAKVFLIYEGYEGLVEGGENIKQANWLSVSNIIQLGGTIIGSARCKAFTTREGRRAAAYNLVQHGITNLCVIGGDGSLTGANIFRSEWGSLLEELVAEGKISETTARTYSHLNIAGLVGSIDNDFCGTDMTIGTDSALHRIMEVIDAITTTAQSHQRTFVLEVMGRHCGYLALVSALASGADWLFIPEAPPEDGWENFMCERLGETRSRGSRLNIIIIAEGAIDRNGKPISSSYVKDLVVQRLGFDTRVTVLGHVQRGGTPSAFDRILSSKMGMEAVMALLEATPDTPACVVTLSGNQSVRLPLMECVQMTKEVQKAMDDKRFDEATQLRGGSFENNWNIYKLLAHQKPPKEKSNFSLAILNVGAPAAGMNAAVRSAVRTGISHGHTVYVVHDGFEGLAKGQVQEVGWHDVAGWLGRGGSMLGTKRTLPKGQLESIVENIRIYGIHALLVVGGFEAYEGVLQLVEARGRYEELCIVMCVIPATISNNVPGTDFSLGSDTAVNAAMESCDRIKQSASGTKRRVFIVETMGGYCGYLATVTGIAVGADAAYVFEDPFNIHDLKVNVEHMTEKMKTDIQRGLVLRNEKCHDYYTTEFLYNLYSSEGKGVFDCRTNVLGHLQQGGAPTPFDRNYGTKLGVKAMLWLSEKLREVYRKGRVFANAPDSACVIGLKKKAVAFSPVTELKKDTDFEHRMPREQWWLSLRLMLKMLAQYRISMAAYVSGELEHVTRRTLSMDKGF

GST-DNAAF5 (human) = molecular target: T3, GST-DNAAF5 (human) (UniProt Q86Y56); test: pull-down; GST- and His-pulldown with purified GST- and His-tagged proteins (Thermo Scientific kits 21516, 21277); GST alone as control; both purified
T3 sequence: T1 sequence

GST-PFKL (human) = molecular target: T4, GST-PFKL (human) (UniProt P17858); test: as above
T4 sequence: T2 sequence

B1: PFKL (phosphofructokinase, liver type), in HCC cell lysate (enzyme, UniProt P17858 1-780)
chain: T2 sequence
binding [1]: binds

B2: USP39 (deubiquitination protein), in HCC cell lysate (protein, UniProt Q53GS9 1-565)
chain: MSGRSKRESRGSTRGKRESESRGSSGRVKRERDREREPEAASSRGSPVRVKREFEPASAREAPASVVPFVRVKREREVDEDSEPEREVRAKNGRVDSEDRRSRHCPYLDTINRSVLDFDFEKLCSISLSHINAYACLVCGKYFQGRGLKSHAYIHSVQFSHHVFLNLHTLKFYCLPDNYEIIDSSLEDITYVLKPTFTKQQIANLDKQAKLSRAYDGTTYLPGIVGLNNIKANDYANAVLQALSNVPPLRNYFLEEDNYKNIKRPPGDIMFLLVQRFGELMRKLWNPRNFKAHVSPHEMLQAVVLCSKKTFQITKQGDGVDFLSWFLNALHSALGGTKKKKKTIVTDVFQGSMRIFTKKLPHPDLPAEEKEQLLHNDEYQETMVESTFMYLTLDLPTAPLYKDEKEQLIIPQVPLFNILAKFNGITEKEYKTYKENFLKRFQLTKLPPYLIFCIKRFTKNNFFVEKNPTIVNFPITNVDLREYLSEEVQAVHKNTTYDLIANIVHDGKPSEGSYRIHVLHHGTGKWYELQDLQVTDILPQMITLSEAYIQIWKRRDNDETNQQGA
binding [1]: binds
binding [2]: binds

B3: His-PFKL (enzyme, UniProt P17858 1-780)
chain: T2 sequence
binding (GST-DNAAF5 (human)): binds

B4: His-USP39 (protein, UniProt Q53GS9 1-565)
chain: B2 chain
binding (GST-PFKL (human)): binds
binding (GST-DNAAF5 (human)): binds
